Laboratory results: PubChem BioAssay AID1224826 (NIAID, 2016)

Screen: 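Regulators of Tlr4 signalling leading to Tnf-alpha expression in macrophages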 (primary screen)
Cell system: RAW264.7 G9 macrophages from mouse bearing reporters for p65 (GFP) and the Tnf promoter (mCherry)
Knock-down reagent: siRNA pool against mouse genes, 100 nM
Time to read-out: 16 h of LPS stimulation, after 2 days of siRNA transfection
Challenge: bacterial lipopolysaccharide (Salmonella minnesota R595), 10 ng/ml
Measured: 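Nuclear mCherry signal of the Tnf promoter reporter measured by imaging after background removal, scaled to each plate median and turned into robust z-scores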
Direction: Tnf reporter robust z-score: higher = stronger Tnf promoter reporter signal after LPS
Call rule: 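Called active when robust z-score is at most -1.3, matching the median of the Tlr4 knock-down control, or over 3; control wells and wells with under 50 cells never active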
Meaning of the calls: active = Tnf reporter clearly lowered or raised; inactive = no clear change in Tnf reporter
Shown is one part, drawn at random, of about 17,000 reagents tested. Of all reagents, about 1,110 (6.6%) were called active. 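Active means lowered or raised reporter signal; replicate intensities are raw and not normalised per plate.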 Entries without a mark were called inactive. Reagents against one gene are numbered here. Further read-outs or replicates are left out here.

For Ugt1a6a (GeneID 94284), how do the results read?
fewer than 50 cells in well: fewer than 50 cells per well; well left out of calls

For Mrpl51 (GeneID 66493), how do the results read?
Tnf reporter robust z-score: 3.92 (active); fewer than 50 cells in well: enough cells in well

How did the screen score Slc1a2 (GeneID 20511)?
Tnf reporter robust z-score: -0.7; fewer than 50 cells in well: enough cells in well

With Pgrmc1 (GeneID 53328), what does the deposit list?
Tnf reporter robust z-score: 0.23; fewer than 50 cells in well: enough cells in well

Copied from the list.
Entry of Ugt1a6a (GeneID 94284) under “fewer than 50 cells in well”: fewer than 50 cells per well; well left out of calls
Mrpl51 (GeneID 66493), Tnf reporter robust z-score: 3.92 (active)

More records:
How did the screen score A930024E05Rik (GeneID 109202)?
Tnf reporter robust z-score: -0.52; fewer than 50 cells in well: enough cells in well

With Epdr1 (GeneID 105298) #1, how do the results read?
Tnf reporter robust z-score: -0.5; fewer than 50 cells in well: enough cells in well

For Epdr1 (GeneID 105298) #2, what was measured?
Tnf reporter robust z-score: 0.26; fewer than 50 cells in well: enough cells in well

With Mvp (GeneID 78388), what was measured?
Tnf reporter robust z-score: -0.6; fewer than 50 cells in well: enough cells in well

With Pcnt (GeneID 18541), how do the results read?
Tnf reporter robust z-score: -0.01; fewer than 50 cells in well: enough cells in well

How did the screen score Sgsm1 (GeneID 52850)?
Tnf reporter robust z-score: -0.37; fewer than 50 cells in well: enough cells in well

Which result is listed for Aasdh (GeneID 231326)?
Tnf reporter robust z-score: 0.26; fewer than 50 cells in well: enough cells in well

What is on record for Cenpb (GeneID 12616)?
Tnf reporter robust z-score: -0.19; fewer than 50 cells in well: enough cells in well
